Results taken from paper PMC4249797.
Results are given in words; binding and its absence hold for the method and conditions named. In cells and extracts the contact can be indirect. A result given as binding can be weak or reduced; the word gives no strength.

Molecular target: T1, dAtrxL (long isoform of Drosophila dAtrx/Xnp) (Drosophila melanogaster (endogenous in embryos and S2R+ cells)) (UniProt Q9GQN5)
T1 sequence: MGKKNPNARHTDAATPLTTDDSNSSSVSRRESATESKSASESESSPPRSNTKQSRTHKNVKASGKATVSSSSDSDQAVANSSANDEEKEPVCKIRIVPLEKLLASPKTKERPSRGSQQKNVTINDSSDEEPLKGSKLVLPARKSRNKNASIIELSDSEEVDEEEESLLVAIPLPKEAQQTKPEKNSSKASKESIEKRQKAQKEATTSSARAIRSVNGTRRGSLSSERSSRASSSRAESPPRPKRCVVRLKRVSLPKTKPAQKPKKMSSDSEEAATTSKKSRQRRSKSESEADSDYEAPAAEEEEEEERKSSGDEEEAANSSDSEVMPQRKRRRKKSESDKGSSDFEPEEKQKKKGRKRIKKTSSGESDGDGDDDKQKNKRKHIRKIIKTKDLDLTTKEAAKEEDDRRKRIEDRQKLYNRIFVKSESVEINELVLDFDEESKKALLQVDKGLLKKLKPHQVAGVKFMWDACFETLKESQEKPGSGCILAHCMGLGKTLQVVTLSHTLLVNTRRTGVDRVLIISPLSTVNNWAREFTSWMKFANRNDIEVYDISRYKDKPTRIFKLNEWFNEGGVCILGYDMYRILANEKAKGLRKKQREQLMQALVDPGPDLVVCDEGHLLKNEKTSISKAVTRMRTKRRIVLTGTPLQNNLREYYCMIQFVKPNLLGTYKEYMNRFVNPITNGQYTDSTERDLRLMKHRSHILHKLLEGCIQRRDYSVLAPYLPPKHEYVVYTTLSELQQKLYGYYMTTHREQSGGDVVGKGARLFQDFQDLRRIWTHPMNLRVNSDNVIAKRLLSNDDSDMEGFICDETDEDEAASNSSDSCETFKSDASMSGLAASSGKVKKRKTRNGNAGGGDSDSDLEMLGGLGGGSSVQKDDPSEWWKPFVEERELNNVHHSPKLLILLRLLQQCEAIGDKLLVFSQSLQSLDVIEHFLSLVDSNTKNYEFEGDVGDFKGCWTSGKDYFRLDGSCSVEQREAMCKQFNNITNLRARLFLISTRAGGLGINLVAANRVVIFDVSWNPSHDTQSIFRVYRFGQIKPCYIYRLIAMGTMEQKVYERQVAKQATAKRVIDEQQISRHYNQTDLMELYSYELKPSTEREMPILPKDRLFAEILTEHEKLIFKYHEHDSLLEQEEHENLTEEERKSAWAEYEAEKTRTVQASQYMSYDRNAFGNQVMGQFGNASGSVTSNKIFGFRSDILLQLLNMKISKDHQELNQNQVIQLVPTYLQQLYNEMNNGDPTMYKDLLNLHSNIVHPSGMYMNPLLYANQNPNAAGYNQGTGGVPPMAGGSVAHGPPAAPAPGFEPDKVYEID
Assay: co-IP; endogenous proteins; embryo nuclear extract or S2R+ cells total extract; IP with pan-dAdd1 or anti-dAtrxL antibody, Western blot with pan-dAdd1, anti-dAtrxL, anti-dAdd1-a or anti-dAdd1-b; mock IP with an unrelated antibody

| Substance | binding |
| --- | --- |
| dAdd1-b | binds |
| dAdd1-a | binds |
